# Assay results taken from PubChem BioAssay AID2662 (National Center for Advancing Translational Sciences (NCATS), 2010).
# Protein sequences, listed by entry. Tags and fused reporters are not part of them.
# UniProt Q03164, whole entry, looked up: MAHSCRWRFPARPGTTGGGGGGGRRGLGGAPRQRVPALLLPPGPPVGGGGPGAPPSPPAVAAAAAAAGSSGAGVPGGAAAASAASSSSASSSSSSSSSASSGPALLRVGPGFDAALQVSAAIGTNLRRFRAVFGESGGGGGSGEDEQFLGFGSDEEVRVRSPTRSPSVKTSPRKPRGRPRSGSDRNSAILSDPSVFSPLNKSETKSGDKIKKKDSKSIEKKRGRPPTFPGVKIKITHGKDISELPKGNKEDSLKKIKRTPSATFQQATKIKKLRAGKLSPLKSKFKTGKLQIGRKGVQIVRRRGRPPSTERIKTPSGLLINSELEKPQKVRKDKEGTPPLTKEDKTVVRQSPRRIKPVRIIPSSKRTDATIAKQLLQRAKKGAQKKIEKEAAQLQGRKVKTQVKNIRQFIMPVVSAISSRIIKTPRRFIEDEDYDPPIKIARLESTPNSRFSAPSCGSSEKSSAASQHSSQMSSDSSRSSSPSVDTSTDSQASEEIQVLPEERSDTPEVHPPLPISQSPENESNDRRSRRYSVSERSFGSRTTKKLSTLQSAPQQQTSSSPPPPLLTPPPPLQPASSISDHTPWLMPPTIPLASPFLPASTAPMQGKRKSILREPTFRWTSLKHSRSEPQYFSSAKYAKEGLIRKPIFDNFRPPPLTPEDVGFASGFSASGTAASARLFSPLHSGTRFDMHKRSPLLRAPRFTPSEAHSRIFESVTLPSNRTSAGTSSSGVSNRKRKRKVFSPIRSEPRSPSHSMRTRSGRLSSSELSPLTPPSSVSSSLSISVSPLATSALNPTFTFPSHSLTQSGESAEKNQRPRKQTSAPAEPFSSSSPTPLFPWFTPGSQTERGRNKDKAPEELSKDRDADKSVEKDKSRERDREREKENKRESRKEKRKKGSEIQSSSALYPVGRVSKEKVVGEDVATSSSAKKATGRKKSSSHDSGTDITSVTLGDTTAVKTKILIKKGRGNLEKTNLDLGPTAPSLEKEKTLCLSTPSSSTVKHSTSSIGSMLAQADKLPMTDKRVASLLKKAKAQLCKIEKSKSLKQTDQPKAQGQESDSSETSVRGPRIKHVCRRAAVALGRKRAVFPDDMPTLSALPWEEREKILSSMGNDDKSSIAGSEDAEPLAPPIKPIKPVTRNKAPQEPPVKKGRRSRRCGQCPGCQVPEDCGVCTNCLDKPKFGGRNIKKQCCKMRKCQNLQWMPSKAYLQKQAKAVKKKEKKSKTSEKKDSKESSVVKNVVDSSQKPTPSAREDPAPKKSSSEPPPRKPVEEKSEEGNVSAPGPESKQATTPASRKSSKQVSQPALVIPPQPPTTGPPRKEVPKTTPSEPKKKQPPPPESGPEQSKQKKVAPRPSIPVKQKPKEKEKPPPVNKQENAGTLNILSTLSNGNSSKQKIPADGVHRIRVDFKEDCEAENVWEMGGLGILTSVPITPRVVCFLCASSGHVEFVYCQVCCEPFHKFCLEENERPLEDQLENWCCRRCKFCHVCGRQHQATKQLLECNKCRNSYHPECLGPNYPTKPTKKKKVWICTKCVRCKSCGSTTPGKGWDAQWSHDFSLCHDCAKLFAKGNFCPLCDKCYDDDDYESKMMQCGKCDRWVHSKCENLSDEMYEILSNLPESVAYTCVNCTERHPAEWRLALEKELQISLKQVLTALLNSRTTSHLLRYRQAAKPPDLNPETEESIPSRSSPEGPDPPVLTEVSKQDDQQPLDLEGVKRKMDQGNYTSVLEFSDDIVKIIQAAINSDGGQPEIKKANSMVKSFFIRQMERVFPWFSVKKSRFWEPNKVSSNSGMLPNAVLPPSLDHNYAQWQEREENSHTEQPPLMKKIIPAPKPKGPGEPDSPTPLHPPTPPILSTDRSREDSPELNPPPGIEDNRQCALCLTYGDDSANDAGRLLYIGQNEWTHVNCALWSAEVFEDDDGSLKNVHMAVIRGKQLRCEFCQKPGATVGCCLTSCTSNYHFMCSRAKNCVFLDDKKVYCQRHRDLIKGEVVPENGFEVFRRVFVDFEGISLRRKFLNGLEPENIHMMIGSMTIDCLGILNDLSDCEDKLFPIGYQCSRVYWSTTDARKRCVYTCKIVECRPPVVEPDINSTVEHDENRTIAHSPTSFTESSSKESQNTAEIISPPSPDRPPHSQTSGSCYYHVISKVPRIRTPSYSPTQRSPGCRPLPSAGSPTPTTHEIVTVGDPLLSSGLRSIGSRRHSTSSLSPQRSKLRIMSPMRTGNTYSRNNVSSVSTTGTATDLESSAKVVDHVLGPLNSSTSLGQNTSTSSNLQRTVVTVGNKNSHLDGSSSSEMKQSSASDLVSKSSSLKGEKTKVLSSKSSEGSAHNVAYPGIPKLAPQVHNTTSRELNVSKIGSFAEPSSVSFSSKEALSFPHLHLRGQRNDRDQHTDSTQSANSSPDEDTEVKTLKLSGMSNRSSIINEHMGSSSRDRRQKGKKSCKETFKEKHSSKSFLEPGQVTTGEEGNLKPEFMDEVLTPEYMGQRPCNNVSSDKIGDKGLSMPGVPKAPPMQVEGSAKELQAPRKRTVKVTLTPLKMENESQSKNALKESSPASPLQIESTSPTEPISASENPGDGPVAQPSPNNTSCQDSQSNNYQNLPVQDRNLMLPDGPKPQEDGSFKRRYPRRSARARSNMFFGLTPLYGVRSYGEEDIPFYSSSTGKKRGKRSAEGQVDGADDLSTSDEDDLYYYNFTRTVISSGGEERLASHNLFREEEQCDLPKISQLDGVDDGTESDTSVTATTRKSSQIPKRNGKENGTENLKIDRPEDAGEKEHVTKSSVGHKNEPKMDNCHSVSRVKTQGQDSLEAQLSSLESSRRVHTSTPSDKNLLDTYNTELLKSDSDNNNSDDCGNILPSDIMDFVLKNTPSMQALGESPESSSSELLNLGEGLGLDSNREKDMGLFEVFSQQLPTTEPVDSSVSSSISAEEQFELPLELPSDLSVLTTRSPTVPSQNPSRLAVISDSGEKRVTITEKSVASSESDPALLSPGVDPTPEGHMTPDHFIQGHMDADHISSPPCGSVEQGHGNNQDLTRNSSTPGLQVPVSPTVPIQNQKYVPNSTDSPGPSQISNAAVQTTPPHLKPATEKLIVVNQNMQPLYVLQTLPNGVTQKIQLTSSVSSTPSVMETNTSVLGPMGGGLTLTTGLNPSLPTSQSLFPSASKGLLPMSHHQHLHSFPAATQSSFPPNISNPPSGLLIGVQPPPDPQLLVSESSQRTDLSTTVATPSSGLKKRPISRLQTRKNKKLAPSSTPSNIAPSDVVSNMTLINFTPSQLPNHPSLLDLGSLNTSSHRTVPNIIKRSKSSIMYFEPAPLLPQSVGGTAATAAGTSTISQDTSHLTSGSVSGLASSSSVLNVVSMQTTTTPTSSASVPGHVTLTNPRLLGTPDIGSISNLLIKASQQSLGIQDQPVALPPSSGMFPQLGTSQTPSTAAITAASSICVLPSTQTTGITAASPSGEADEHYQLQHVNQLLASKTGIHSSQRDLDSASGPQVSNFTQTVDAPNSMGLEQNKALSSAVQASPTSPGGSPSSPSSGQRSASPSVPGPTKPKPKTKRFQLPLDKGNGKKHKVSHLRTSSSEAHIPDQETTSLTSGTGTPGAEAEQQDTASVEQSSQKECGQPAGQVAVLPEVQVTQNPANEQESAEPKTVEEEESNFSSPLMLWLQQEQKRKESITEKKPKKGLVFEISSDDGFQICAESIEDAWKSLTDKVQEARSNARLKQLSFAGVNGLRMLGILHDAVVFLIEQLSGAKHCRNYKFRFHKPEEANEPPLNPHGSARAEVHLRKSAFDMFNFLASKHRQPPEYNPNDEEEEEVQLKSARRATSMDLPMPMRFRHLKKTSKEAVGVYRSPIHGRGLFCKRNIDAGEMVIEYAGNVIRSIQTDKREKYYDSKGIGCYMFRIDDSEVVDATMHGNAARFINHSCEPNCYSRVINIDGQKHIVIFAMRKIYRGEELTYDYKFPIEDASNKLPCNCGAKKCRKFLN
# Screen size: about 290,000 compounds; about 110 (0.038%) were called active. This list was built around the results that the source calls inconclusive (neither active nor inactive); the mix of calls is not that of the screen. Calls follow the shape of the dose curve; as a rule, active = well fitted inhibition curve with a large enough effect in the polarisation, with a control signal flat (not every such curve was filed as active); inconclusive = small, poorly fitted or top-dose-only effect, or effect the other way, or a change in a side signal; inactive = no such curve, though single readings can be large or run the other way; the % refers to the polarisation. Potencies beside an inconclusive call are fits to weak or partial responses and may not hold up. “Side channel” marks fits to a control or component signal instead of the main read-out.
# Target: Histone-lysine N-methyltransferase 2A (Homo sapiens) (UniProt Q03164)
# Assay: qHTS Fluorescence Polarization Assay for Inhibitors of MLL CXXC domain - DNA interaction
# Settings: MLL-CXXC / FITC-HOXA9 DNA fluorescence polarization; series mostly up to 115 µM
# Outline: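 Purified MLL-CXXC (added from a 7 uM solution) was preincubated 5 min at ambient with pinned compounds in 50 mM Tris-HCl pH 7.5, 50 mM NaCl, 1 mM DTT, 0.05% BSA. Fluorescein-labeled HOX-A9 DNA (50 nM solution) followed, 30 min, then polarization read.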
# Potency is read from the fitted curve at half-maximal effect.
row,SMILES,Potency
1,C#Cc1cccc(NC(=O)c2ccc(Cl)cc2Cl)c1,"inconclusive: 10 µM [fluorescent, side channel, single point]"
2,COc1cc(-c2cc(=O)c3c(O)c(OC)c(OC)c(O)c3o2)ccc1O,inactive
3,Cc1cc(C)nc(N/N=C/c2cc(Br)ccc2O)n1,"inconclusive: 2.82 µM [quencher, side channel, full curve]"
4,COc1ccccc1Oc1ccc2c(c1)C(=O)N(c1cccc3ncccc13)C2=O,"inconclusive: 35.5 µM [fluorescent, side channel, single point]"
5,COc1ccc(CN2CCN(Cc3c[nH]c4ccccc34)CC2)cc1,inactive
6,CCN1CCCCC(=N/O)/C(=N/O)CCCC1,"inconclusive: 70.8 µM [fluorescent, side channel, single point]"
7,Cc1cc(C(=O)O)cc(S(=O)(=O)Nc2ccccc2C(=O)NC(C)c2ccccc2)c1C (stereo not drawn),"inconclusive: 89.1 µM [quencher, side channel, single point]"
8,CNC(=O)N(O)C1N(c2ccccc2)C(=S)SC1(C)C (stereo not drawn),"inconclusive: 35.5 µM [inhibitor, single point]"
9,Cc1cccc(-c2cc3nc(-c4ccccc4)cc(N4CCC5(CC4)OCCO5)n3n2)c1,inactive
10,COc1ccc(Nc2nc(-c3cccnc3)nc3ccccc23)cn1,"inconclusive: 39.8 µM [inhibitor, single point]"
11,c1ccc(CCn2c3ccccc3c3nnc(SCc4ccc5nonc5c4)nc32)cc1,"inconclusive: 70.8 µM [fluorescent, side channel, single point]"
12,CCN(CC)c1ccc2cc(C(N)=O)c(=N)oc2c1,"inconclusive: 7.08 µM [fluorescent, side channel, full curve]"
13,Cc1cc(=O)[nH]c(-c2cccnc2)n1,"inconclusive: 63.1 µM [fluorescent, side channel, single point]"
14,COc1ccc(N2C(=O)CC(N(CCc3ccccc3)C(=O)c3ccccc3)C2=O)cc1 (stereo not drawn),inactive
15,O=c1c(Cl)c(O)c2cccc3c4ccccc4n1c23,inactive
16,CC(=O)Nc1ccc(NC(=O)CSc2ccc(-c3cccnc3)nn2)cc1,"inconclusive: 14.1 µM [fluorescent, side channel, single point]"
17,Cn1cccc1/C=C1\SC(=S)N(NC(=O)c2ccccc2)C1=O,"inconclusive: 44.7 µM [fluorescent, side channel, single point]"
18,O=C(COc1ccccc1)Nc1nnc(-c2ccc(Cl)s2)o1,"inconclusive: 79.4 µM [inhibitor, partial curve, poor fit]"

# Given tab-delimited: 2 of the compounds above.
row	SMILES	Potency
5	COc1ccc(CN2CCN(Cc3c[nH]c4ccccc34)CC2)cc1	inactive
10	COc1ccc(Nc2nc(-c3cccnc3)nc3ccccc23)cn1	inconclusive: 39.8 µM [inhibitor, single point]
